System: MA-46 (MA) (DNA, aptamer) CTTACGACTCAGGCATTTTGCCGGGTAACGAAGTTACTGTCGTAAG
Assay: ITC
Conditions: 20 mM Na+, 5 mM Mg2+; 10 mM Tris-HCl pH 7.4, 23 °C; one-site model

- Kd: 195 ± 5 µM
SMILES: CN(C)CCOC(c1ccccc1)c1ccccc1

— paper PMC7672472 (2020)
